# The supplement of paper PMC8728848
# The other results are listed elsewhere or left out.
# B1: Clec18A (Homo sapiens) (protein)
# chain: PFHTCDLRIDGDCFMVSSEADTYYRARMKCQRKGGVLAQIKRQKVQDILAFYLGRLETTNEVIDSDFETRNFWIGLTYKTAKDSFRWATGEHQAFTSFAFGQPDNHGFGNCVELQASAAFNWNDQRCKTRNRYICQ
# Experiments:
# Experiment in all cases: glycan array binding signal (z-score within array); higher = stronger binding
# Details in all cases: glycan notation: IUPAC condensed, linker removed
# [1] = target: Gal(b1-4)GlcNAc(b1-2)Man(a1-6)[Man(a1-3)]Man(b1-4)GlcNAc(b1-4)GlcNAc
# Method in brief: (§1)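 The Consortium for Functional Glycomics database supplied 3228 glycan arrays, of which those lacking an available protein sequence were dropped. The binding signal, a within-array Z-score, was averaged across arrays of the same protein sequence and across linkers. Negative scores can be read as non-binding.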
# [2] = target: Gal(b1-4)GlcNAc(b1-2)[Gal(b1-4)GlcNAc(b1-4)]Man(a1-3)[Gal(b1-4)GlcNAc(b1-2)Man(a1-6)]Man(b1-4)GlcNAc(b1-4)GlcNAc
# Method in brief: as §1
# [3] = target: Gal(b1-4)GlcNAc(b1-2)[Gal(b1-4)GlcNAc(b1-4)]Man(a1-3)[Gal(b1-4)GlcNAc(b1-2)[Gal(b1-4)GlcNAc(b1-6)]Man(a1-6)]Man(b1-4)GlcNAc(b1-4)GlcNAc
# Method in brief: as §1
# [4] = target: Gal(b1-4)GlcNAc(b1-2)[Gal(b1-4)GlcNAc(b1-4)]Man(a1-3)[GlcNAc(b1-4)][Gal(b1-4)GlcNAc(b1-2)Man(a1-6)]Man(b1-4)GlcNAc(b1-4)GlcNAc
# Method in brief: as §1
# [5] = target: Gal(b1-4)GlcNAc(b1-2)[Gal(b1-4)GlcNAc(b1-4)]Man(a1-3)[GlcNAc(b1-4)][Gal(b1-4)GlcNAc(b1-2)[Gal(b1-4)GlcNAc(b1-6)]Man(a1-6)]Man(b1-4)GlcNAc(b1-4)GlcNAc
# Method in brief: as §1
# [6] = target: Gal(b1-4)GlcNAc(b1-2)[Gal(b1-4)GlcNAc(b1-6)]Man(a1-6)[Gal(b1-4)GlcNAc(b1-2)Man(a1-3)]Man(b1-4)GlcNAc(b1-4)GlcNAc
# Method in brief: as §1
# [7] = target: Gal(b1-4)GlcNAc(b1-2)[Gal(b1-4)GlcNAc(b1-6)]Man(a1-6)[Gal(b1-4)GlcNAc(b1-2)Man(a1-3)]Man(b1-4)GlcNAc(b1-4)[Fuc(a1-6)]GlcNAc
# Method in brief: as §1
# [8] = target: Gal(b1-4)GlcNAc(b1-2)[Gal(b1-4)GlcNAc(b1-6)]Man(a1-6)[GlcNAc(b1-4)][Gal(b1-4)GlcNAc(b1-2)Man(a1-3)]Man(b1-4)GlcNAc(b1-4)GlcNAc
# Method in brief: as §1
# [9] = target: Gal(b1-4)GlcNAc(b1-2)[Gal(b1-4)GlcNAc(b1-6)]Man(a1-6)[GlcNAc(b1-4)][Gal(b1-4)GlcNAc(b1-2)[Gal(b1-4)GlcNAc(b1-4)]Man(a1-3)]Man(b1-4)GlcNAc(b1-4)[Fuc(a1-6)]GlcNAc
# Method in brief: as §1
# [10] = target: Gal(b1-4)GlcNAc(b1-3)Gal(b1-3)GalNAc
# Method in brief: as §1
# [11] = target: Gal(b1-4)GlcNAc(b1-3)Gal(b1-3)GlcNAc
# Method in brief: as §1
# [12] = target: Gal(b1-4)GlcNAc(b1-3)Gal(b1-4)Glc
# Method in brief: as §1
# [13] = target: Gal(b1-4)GlcNAc(b1-3)Gal(b1-4)GlcNAc
# Method in brief: as §1
# [14] = target: Gal(b1-4)GlcNAc(b1-3)Gal(b1-4)GlcNAc(b1-2)Man(a1-3)[Gal(b1-4)GlcNAc(b1-3)Gal(b1-4)GlcNAc(b1-2)Man(a1-6)]Man(b1-4)GlcNAc(b1-4)GlcNAc
# Method in brief: as §1
# [15] = target: Gal(b1-4)GlcNAc(b1-3)Gal(b1-4)GlcNAc(b1-2)Man(a1-3)[Gal(b1-4)GlcNAc(b1-3)Gal(b1-4)GlcNAc(b1-2)Man(a1-6)]Man(b1-4)GlcNAc(b1-4)[Fuc(a1-6)]GlcNAc
# Method in brief: as §1
# [16] = target: Gal(b1-4)GlcNAc(b1-3)Gal(b1-4)GlcNAc(b1-2)[Gal(b1-4)GlcNAc(b1-3)Gal(b1-4)GlcNAc(b1-6)]Man(a1-6)[Gal(b1-4)GlcNAc(b1-3)Gal(b1-4)GlcNAc(b1-2)Man(a1-3)]Man(b1-4)GlcNAc(b1-4)GlcNAc
# Method in brief: as §1
# [17] = target: Gal(b1-4)GlcNAc(b1-3)Gal(b1-4)GlcNAc(b1-2)[Gal(b1-4)GlcNAc(b1-3)Gal(b1-4)GlcNAc(b1-6)]Man(a1-6)[Gal(b1-4)GlcNAc(b1-3)Gal(b1-4)GlcNAc(b1-2)Man(a1-3)]Man(b1-4)GlcNAc(b1-4)[Fuc(a1-6)]GlcNAc
# Method in brief: as §1
# [18] = target: Gal(b1-4)GlcNAc(b1-3)Gal(b1-4)GlcNAc(b1-3)Gal(b1-4)GlcNAc
# Method in brief: as §1
# [19] = target: Gal(b1-4)GlcNAc(b1-3)Gal(b1-4)GlcNAc(b1-3)Gal(b1-4)GlcNAc(b1-2)Man(a1-3)[Gal(b1-4)GlcNAc(b1-3)Gal(b1-4)GlcNAc(b1-3)Gal(b1-4)GlcNAc(b1-2)Man(a1-6)]Man(b1-4)GlcNAc(b1-4)GlcNAc
# Method in brief: as §1
# [20] = target: Gal(b1-4)GlcNAc(b1-3)Gal(b1-4)GlcNAc(b1-3)Gal(b1-4)GlcNAc(b1-2)Man(a1-3)[Gal(b1-4)GlcNAc(b1-3)Gal(b1-4)GlcNAc(b1-3)Gal(b1-4)GlcNAc(b1-2)Man(a1-6)]Man(b1-4)GlcNAc(b1-4)[Fuc(a1-6)]GlcNAc
# Method in brief: as §1
# [21] = target: Gal(b1-4)GlcNAc(b1-3)Gal(b1-4)GlcNAc(b1-3)Gal(b1-4)GlcNAc(b1-2)[Gal(b1-4)GlcNAc(b1-3)Gal(b1-4)GlcNAc(b1-3)Gal(b1-4)GlcNAc(b1-6)]Man(a1-6)[Gal(b1-4)GlcNAc(b1-3)Gal(b1-4)GlcNAc(b1-3)Gal(b1-4)GlcNAc(b1-2)Man(a1-3)]Man(b1-4)GlcNAc(b1-4)[Fuc(a1-6)]GlcNAc
# Method in brief: as §1
# [22] = target: Gal(b1-4)GlcNAc(b1-3)Gal(b1-4)GlcNAc(b1-3)Gal(b1-4)GlcNAc(b1-3)Gal(b1-4)GlcNAc(b1-2)Man(a1-3)[Gal(b1-4)GlcNAc(b1-3)Gal(b1-4)GlcNAc(b1-3)Gal(b1-4)GlcNAc(b1-3)Gal(b1-4)GlcNAc(b1-2)Man(a1-6)]Man(b1-4)GlcNAc(b1-4)GlcNAc
# Method in brief: as §1
binder,measurement,setting,value
B1,glycan array binding signal (z-score),[1],1.75
same,glycan array binding signal (z-score),[2],1.42
same,glycan array binding signal (z-score),[3],0.93
same,glycan array binding signal (z-score),[4],1.47
same,glycan array binding signal (z-score),[5],-0.093
same,glycan array binding signal (z-score),[6],1.04
same,glycan array binding signal (z-score),[7],3.1
same,glycan array binding signal (z-score),[8],-0.289
same,glycan array binding signal (z-score),[9],0.191
same,glycan array binding signal (z-score),[10],1.44
same,glycan array binding signal (z-score),[11],-0.605
same,glycan array binding signal (z-score),[12],-0.291
same,glycan array binding signal (z-score),[13],3.23
same,glycan array binding signal (z-score),[14],0.042
same,glycan array binding signal (z-score),[15],1.92
same,glycan array binding signal (z-score),[16],1.9
same,glycan array binding signal (z-score),[17],1.52
same,glycan array binding signal (z-score),[18],0.45
same,glycan array binding signal (z-score),[19],0.556
same,glycan array binding signal (z-score),[20],2.33
same,glycan array binding signal (z-score),[21],3.83
same,glycan array binding signal (z-score),[22],1.11
